Reference: the supplement of paper PMC3334620
Whole data set: some 33,000 sequences, median “E-score (-0.5 to 0.5)” near -0.016, cut for the highest 2% near 0.3. Some of the results follow.

Target: T1, Yer184c (UniProt P39961)
T1 sequence: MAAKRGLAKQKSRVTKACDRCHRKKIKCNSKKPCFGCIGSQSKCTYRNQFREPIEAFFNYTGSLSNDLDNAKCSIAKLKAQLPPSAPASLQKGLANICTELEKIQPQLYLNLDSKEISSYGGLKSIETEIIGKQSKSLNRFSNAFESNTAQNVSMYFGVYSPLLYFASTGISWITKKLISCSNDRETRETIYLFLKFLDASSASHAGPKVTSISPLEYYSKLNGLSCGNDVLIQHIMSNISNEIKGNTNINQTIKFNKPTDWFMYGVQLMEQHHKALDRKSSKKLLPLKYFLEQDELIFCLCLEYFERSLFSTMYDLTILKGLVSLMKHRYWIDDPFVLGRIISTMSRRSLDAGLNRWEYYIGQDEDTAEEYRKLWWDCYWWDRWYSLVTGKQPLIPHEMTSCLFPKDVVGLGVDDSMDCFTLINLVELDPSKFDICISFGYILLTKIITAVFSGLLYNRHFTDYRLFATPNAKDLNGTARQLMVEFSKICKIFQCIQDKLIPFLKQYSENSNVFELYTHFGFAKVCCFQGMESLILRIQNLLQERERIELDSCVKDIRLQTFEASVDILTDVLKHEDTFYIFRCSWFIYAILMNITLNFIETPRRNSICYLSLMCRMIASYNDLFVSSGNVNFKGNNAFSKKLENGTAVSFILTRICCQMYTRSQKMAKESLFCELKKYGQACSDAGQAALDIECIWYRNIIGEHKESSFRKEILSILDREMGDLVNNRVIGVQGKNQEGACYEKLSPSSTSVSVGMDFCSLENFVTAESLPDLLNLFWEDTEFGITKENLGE
Assay: PBM E-score (8-mer binding enrichment) (E-score (-0.5 to 0.5)); higher = stronger / more preferred TF binding
Conditions: protein concentration: 100 nM; construct: GST-full length
Outline: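 PURExpress in vitro transcription/translation supplied GST-tagged yeast transcription factors, either full-length or DNA-binding domain. Applied at about 100-200 nM to universal all-10-mer Agilent arrays double-stranded by primer extension, the bound protein was detected with fluorescent anti-GST. E-scores, modified Wilcoxon-Mann-Whitney statistics, were given by the Universal PBM Analysis Suite to ungapped eight-base words pooled with their reverse complements after masliner normalisation.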

Row | Sequence | PBM E-score
1 | CATCTGTA | -0.077
2 | AAGAACTA | 0.156
3 | AGGTACAG | -0.297
4 | CACCAACA | -0.23
5 | GATATTGA | 0.0825
6 | TCGAGTCA | -0.161
7 | TAGAAACA | 0.0611
8 | CGTCTTAG | -0.116
9 | ATAGCAGG | 0.0116
10 | AACTCAGG | -0.0713
11 | CGCTGTAG | -0.0114
12 | ACGCGGAG | 0.143
13 | CGGTCCCC | -0.142
14 | GACCAGAC | -0.0869
15 | AGGAGATA | -0.134
16 | GGGCCGTA | 0.072
17 | AATAATTC | 0.215
18 | ATCCCTGC | -0.0479
19 | ACCCAGAA | 0.158
20 | AAATTAGG | 0.233
21 | AGGACTAC | -0.393
22 | ATTTAGGA | 0.0767
23 | AAGAGTCC | -0.109
24 | CAGGCACC | -0.3
25 | GCCTCTGA | -0.25

Random excerpt: 3 records from the list
Row | Sequence | PBM E-score
14 | GACCAGAC | -0.0869
1 | CATCTGTA | -0.077
7 | TAGAAACA | 0.0611

Continued:

Row | Sequence | PBM E-score
26 | ATAATGAA | 0.237
27 | CTCGTCAG | -0.0979
28 | CCGCTCTC | -0.0794
29 | ACATGCCA | -0.165
30 | CGCCTTGC | -0.152
31 | TGACGTAA | -0.0158
32 | AGGATTTG | 0.0747
33 | GAGCGGTA | 0.0436
34 | CTTCGTCC | -0.137
35 | ACAAAAGA | 0.0849
36 | ATGGGTAC | -0.25
37 | TAAAGCGA | 0.0559
38 | AGTTTAGG | -0.0901
39 | AACCATCT | -0.229
40 | CACGATGC | -0.163
41 | TCTTGTCA | 0.0655
42 | CGATAATA | 0.255
43 | TAAATTTA | 0.311
44 | AACGTCCG | 0.115
45 | GATCACTA | 0.0673
46 | CGTCCGTC | -0.188
47 | AGTCCGCA | 0.019
48 | TGGTGTAA | -0.0943
49 | CACTCCCA | -0.154
50 | AAACTACG | 0.0299

Row | Sequence | PBM E-score
51 | AACTAAAA | 0.145
52 | AACGTATA | -0.0905
53 | CGCATGAG | -0.284
54 | ATTACAAT | -0.0245
55 | ATTCGTCG | 0.193
56 | CGTTCGAA | 0.164
57 | CCCCTCGC | -0.152
58 | AATGCAGA | 0.0377
59 | GGACTACA | -0.0688
60 | GCTGATAA | 0.183
61 | CGGAAAAC | 0.349
62 | CATAGATC | -0.0937
63 | ACGCAACA | 0.0928
64 | GATCACCA | -0.0157
65 | CTCAGCAC | -0.0675
66 | CACCAGCA | -0.172
67 | ATGGCTGG | -0.269
68 | ACATCCGT | 0.167
69 | CCGGGGTC | 0.17
70 | ATCAAGGC | -0.103
71 | GTGGAGAA | -0.0473
72 | TACGCGTA | 0.0413
73 | CCTTCGCA | -0.0813
74 | GTTCCCTA | 0.00458
75 | ACTACGAA | 0.125

Row | Sequence | PBM E-score
76 | GCTACCTA | -0.109
77 | GTGATGCA | 0.0597
78 | AAACGGCC | 0.194
79 | CGGGTTGA | -0.017
80 | CCTGGAAA | 0.00157
81 | CCGCAATC | 0.048
82 | AGAGTCTC | -0.247
83 | CCTTAACA | -0.128
84 | AGGGGATA | -0.27
85 | ATTTAGTG | 0.193
86 | ATGATATA | 0.0663
87 | CTACTCCC | -0.0431
88 | AGGTGTAT | -0.079
89 | ATAGCACA | 0.0125
90 | ACGGTTAC | 0.122
91 | CGTAAACG | 0.0568
92 | CTTGGGAC | -0.112
93 | ATACAAAT | 0.216
94 | TAATAGCA | -0.0153
95 | AGACGAAT | 0.078
96 | ATTTCTTA | 0.216
97 | GCCCCCGA | -0.295
98 | ACTGTTGG | -0.178
99 | CGATGAAG | 0.0793
100 | ATCTTCCG | 0.289

Row | Sequence | PBM E-score
101 | ACCGATCT | 0.0299
102 | AAGCATCG | 0.121
103 | CTACTAGA | -0.0965
104 | CCCTTTAG | -0.347
105 | AAGACGAA | 0.0744
106 | ATCTCTCC | -0.157
107 | TAATGCAA | -0.0977
108 | CTAACCAG | -0.0926
109 | CAAATATG | 0.195
110 | GCCAACGC | 0.0508
111 | GATCAATC | 0.0671
112 | AAACAGGA | -0.0365
113 | CAGCGCTG | 0.129
114 | CCGTAGGA | -0.0893
115 | ACCGTTTC | 0.116
116 | CTACCGTA | -0.0102
117 | AAGTCTGT | -0.0608
118 | GACCGCCC | -0.0546
119 | CGGGTTGC | 0.118
120 | ATACGAAG | 0.146
121 | AAATAAAC | 0.179
122 | CCGACAGC | -0.0471
123 | GGACGGCA | 0.0615
124 | CGGATCGC | 0.208
125 | GTGTGACA | -0.19

Row | Sequence | PBM E-score
126 | CCATTTTA | 0.148
127 | GGAAGGCA | -0.0597
128 | AATGCGCC | 0.0748
129 | CGTGGCCA | -0.31
130 | AACTTTCT | 0.0945
131 | ATTTCTCC | 0.122
132 | ATAGTAGC | 0.108
133 | ATCGCCGC | 0.206
134 | GTCCGCGA | 0.08
135 | AAGGTGCC | -0.0528
136 | GTTGATAA | 0.214
137 | GGCCTCCA | -0.0306
138 | ACGGCTTC | 0.0891
139 | GAGAATGA | 0.13
140 | CGACCACG | 0.0622
141 | CTGCAGCC | -0.0492
142 | AAGCTGAA | 0.109
143 | GGAGCACC | -0.178
144 | ATCGAGTG | 0.122
145 | ACTTGCCG | 0.142
146 | AGTATGGC | -0.156
147 | CTGACAAC | 0.00442
148 | ATCAGGAC | 0.0761
149 | AGGTTTCG | -0.105
150 | CACCGGGG | -0.116

Laid out differently: results already given.

| Row | Sequence | PBM E-score |
| --- | --- | --- |
| 101 | ACCGATCT | 0.0299 |
| 102 | AAGCATCG | 0.121 |
| 103 | CTACTAGA | -0.0965 |
| 104 | CCCTTTAG | -0.347 |

Going on with the list:

Row | Sequence | PBM E-score
151 | GATACTGC | -0.0078
152 | ATCTGAAA | 0.155
153 | AGACGTCC | -0.0912
154 | CCCTGTAG | -0.187
155 | CGGTGGGA | -0.035
156 | CCCACAAC | -0.0821
157 | ATAGGCCA | -0.065
158 | CACTCGCA | -0.104
159 | AAAACTCT | 0.0438
160 | ATTCACTG | -0.0733
161 | AGCGTGCA | 0.0446
162 | CTAATGGC | -0.0994
163 | GCTGCTTA | 0.0261
164 | GACTAACC | 0.0069
165 | ACATAGTG | -0.0527
166 | CCGTTTTA | 0.156
167 | CCAATTGG | 0.041
168 | CGCTCGAA | 0.0413
169 | GACAAGTA | -0.0032
170 | ACAAACCG | 0.201
171 | AGAGCTTC | -0.0227
172 | AAACCACA | -0.17

Taken from above.
PBM E-score, ATAGGCCA reads -0.065
PBM E-score, ACAAACCG reads 0.201
